The list shows a part of the results. Hit calls seldom repeat between salt and free forms of one compound.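 In K562 cells expressing nanoluciferase-fused kinases, luminescence was recorded at 4 h intervals between 2 and 18 h, normalized as percent of control with DMSO at 100% and a positive control at 0%. A significant (2 sigma) signal drop marks a time point as decreased. The authors' rule for a hit is not shown and takes in more than the number of time points.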
What was measured:
Details in all cases: K562; 2-18 h
[1] = biological target: STK38 (UniProt Q15208); test: kinase-Nluc reporter destabilization hit call (1 = scored as downregulated) (binary); higher = compound decreases kinase abundance
[2] = biological target: SYK (UniProt P43405); test: as above
[3] = biological target: TEC (UniProt P42680); test: as above
[4] = biological target: TYK2 (UniProt P29597); test: as above
[5] = biological target: ULK3 (UniProt Q6PHR2); test: as above
[6] = biological target: YES1 (UniProt P07947); test: as above
[7] = biological target: ZAK (UniProt Q9NYL2); test: as above
[8] = biological target: ZAP70 (UniProt P43403); test: as above
[9] = biological target: ABL1 (UniProt P00519); test: number of time points (of 5) at which kinase-Nluc abundance scored as decreased, DMSO-normalised (count); higher = more persistent destabilization
[10] = biological target: AKT1 (UniProt P31749); test: as above

Chains of the proteins cited; added tags and fusions are not shown. Lines headed by an entry give the natural chain unless they say otherwise; changes in a name come on top.
UniProt Q15208: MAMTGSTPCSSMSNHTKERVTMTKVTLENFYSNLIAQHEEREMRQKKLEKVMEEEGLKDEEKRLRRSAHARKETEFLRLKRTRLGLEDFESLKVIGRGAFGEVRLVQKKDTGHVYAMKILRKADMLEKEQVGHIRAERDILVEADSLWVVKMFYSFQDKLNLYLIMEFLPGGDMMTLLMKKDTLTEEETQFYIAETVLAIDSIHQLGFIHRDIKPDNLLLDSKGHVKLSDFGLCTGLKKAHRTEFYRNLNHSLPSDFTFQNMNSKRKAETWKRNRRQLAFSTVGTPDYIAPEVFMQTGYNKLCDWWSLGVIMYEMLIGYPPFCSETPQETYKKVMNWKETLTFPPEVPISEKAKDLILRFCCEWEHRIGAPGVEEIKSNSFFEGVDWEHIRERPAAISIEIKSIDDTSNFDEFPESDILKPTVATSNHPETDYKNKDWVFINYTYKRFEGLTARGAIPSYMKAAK
UniProt P42680: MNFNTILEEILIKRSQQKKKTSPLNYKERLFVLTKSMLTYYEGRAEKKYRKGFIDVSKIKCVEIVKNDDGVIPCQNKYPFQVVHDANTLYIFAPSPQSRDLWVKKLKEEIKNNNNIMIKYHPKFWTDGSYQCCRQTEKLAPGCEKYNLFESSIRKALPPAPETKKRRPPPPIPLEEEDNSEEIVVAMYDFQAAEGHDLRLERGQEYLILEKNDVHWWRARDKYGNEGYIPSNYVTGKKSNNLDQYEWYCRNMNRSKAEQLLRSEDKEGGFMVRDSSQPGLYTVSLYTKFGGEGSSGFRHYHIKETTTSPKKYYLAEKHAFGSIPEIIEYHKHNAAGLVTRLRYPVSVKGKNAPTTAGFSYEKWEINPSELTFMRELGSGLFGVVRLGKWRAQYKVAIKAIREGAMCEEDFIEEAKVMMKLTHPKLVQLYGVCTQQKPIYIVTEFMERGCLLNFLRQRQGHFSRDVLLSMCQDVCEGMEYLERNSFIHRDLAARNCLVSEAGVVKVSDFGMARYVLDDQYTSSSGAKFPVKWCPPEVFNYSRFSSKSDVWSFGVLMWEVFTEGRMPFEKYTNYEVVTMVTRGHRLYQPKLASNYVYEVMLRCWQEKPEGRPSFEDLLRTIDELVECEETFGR
UniProt P29597: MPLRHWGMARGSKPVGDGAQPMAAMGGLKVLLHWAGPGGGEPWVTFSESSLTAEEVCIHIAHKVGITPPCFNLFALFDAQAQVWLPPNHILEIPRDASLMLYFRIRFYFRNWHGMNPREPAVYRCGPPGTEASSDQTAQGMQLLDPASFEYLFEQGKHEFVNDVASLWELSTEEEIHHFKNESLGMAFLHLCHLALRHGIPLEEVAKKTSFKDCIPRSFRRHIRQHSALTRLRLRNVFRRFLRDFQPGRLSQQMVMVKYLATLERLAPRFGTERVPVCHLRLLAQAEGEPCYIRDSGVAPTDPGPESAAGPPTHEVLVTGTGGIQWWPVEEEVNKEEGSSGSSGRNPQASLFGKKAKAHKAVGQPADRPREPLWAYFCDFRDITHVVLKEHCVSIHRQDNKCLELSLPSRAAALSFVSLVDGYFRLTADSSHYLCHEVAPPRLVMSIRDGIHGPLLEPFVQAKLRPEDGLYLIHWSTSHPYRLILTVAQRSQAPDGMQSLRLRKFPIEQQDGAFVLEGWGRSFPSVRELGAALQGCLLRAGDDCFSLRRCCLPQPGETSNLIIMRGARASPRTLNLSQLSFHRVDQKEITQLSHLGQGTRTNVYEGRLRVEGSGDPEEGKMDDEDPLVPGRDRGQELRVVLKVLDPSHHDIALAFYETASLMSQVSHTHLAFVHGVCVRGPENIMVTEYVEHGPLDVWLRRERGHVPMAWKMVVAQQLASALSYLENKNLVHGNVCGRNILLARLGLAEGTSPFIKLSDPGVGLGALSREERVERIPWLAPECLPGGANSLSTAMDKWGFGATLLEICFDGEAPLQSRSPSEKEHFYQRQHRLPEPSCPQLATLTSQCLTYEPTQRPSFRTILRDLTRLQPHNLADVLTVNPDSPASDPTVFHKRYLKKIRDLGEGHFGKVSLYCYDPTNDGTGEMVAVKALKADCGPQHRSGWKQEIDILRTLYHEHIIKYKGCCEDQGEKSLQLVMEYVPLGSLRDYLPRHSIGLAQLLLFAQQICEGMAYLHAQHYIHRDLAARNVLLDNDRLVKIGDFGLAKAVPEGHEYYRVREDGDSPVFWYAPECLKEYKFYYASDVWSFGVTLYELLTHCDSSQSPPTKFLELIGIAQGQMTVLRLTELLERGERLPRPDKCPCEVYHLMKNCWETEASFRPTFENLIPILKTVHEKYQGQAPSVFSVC
UniProt Q6PHR2: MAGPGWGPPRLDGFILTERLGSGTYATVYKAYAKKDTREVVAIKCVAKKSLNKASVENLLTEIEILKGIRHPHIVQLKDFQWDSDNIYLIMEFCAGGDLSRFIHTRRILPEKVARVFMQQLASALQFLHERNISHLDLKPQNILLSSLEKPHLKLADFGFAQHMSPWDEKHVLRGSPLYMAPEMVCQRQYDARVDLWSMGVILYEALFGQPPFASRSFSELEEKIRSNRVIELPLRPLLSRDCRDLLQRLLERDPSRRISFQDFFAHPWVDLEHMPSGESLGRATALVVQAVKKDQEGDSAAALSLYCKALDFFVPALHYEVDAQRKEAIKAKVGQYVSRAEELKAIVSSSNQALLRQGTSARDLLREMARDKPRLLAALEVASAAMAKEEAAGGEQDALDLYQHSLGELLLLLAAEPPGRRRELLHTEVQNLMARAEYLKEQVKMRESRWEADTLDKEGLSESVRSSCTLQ
UniProt P07947, whole entry, looked up: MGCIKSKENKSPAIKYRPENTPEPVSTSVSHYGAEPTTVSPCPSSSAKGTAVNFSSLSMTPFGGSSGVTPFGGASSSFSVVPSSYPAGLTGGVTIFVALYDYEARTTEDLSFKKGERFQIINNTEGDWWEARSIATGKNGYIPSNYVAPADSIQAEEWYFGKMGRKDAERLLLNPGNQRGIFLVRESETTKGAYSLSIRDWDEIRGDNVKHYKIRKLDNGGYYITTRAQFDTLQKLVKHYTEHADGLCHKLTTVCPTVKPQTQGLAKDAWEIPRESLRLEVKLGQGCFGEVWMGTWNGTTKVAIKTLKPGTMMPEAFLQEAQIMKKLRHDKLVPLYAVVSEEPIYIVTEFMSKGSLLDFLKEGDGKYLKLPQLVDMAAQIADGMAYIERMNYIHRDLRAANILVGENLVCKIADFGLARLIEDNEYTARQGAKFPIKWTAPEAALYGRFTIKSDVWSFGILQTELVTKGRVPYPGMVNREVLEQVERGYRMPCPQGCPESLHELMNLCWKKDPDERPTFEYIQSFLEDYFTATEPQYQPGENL
UniProt P43403: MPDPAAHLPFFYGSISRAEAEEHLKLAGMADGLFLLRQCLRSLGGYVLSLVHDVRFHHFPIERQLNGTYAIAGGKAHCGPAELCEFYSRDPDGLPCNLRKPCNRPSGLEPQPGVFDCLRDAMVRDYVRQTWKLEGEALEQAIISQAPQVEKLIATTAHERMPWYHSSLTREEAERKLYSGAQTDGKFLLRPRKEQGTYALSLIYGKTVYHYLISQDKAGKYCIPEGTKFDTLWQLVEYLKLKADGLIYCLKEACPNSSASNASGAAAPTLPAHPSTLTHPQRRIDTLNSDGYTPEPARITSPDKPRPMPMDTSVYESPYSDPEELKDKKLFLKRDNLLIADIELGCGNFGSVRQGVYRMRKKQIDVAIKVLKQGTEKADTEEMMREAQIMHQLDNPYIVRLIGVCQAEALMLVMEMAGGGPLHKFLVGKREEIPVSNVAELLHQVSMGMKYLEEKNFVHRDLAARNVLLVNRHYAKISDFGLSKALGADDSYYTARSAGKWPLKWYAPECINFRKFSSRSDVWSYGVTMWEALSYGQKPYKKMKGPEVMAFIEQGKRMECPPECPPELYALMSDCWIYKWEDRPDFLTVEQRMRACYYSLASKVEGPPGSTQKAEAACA
UniProt P00519, whole entry: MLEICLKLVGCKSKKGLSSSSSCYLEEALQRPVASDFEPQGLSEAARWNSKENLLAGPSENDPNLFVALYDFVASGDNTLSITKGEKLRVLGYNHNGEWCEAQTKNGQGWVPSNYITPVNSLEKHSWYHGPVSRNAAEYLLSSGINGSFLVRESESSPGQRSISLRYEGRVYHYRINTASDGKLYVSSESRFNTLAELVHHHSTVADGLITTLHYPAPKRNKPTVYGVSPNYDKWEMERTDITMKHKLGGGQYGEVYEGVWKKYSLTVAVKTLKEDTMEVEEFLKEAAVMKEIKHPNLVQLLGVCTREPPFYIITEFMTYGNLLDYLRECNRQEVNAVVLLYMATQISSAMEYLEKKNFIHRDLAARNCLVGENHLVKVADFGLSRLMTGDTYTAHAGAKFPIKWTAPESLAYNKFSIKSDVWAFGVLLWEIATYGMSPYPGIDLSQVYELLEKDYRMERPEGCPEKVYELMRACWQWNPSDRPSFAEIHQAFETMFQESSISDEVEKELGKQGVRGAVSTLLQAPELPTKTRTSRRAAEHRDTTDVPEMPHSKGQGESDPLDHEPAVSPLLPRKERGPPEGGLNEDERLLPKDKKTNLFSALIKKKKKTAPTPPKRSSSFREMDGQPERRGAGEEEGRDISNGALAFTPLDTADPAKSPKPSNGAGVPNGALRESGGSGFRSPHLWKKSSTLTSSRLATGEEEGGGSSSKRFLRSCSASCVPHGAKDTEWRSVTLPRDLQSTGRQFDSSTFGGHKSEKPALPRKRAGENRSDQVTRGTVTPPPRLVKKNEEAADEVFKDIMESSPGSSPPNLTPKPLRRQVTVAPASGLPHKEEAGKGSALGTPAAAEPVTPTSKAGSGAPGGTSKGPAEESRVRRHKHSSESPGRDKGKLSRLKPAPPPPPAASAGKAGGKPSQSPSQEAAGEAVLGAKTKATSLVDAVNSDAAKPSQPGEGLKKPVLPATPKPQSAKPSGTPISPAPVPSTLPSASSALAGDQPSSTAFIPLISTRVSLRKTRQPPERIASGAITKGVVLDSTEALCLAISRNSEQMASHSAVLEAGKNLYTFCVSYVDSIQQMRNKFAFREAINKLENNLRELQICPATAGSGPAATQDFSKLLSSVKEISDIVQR
UniProt P31749: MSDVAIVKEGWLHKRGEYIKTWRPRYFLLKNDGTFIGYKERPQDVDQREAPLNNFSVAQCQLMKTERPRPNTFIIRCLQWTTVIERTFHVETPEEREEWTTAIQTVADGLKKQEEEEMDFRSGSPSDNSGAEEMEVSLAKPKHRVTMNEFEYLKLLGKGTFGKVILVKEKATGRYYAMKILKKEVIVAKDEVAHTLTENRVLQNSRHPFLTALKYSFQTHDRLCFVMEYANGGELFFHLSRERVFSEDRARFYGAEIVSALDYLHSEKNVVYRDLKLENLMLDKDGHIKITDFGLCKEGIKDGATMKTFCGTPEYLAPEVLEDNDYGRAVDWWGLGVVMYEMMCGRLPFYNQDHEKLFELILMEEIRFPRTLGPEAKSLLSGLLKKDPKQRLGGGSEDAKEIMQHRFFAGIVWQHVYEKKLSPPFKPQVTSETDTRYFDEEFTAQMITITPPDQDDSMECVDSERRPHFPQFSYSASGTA

| Compound | kinase-Nluc reporter destabilization hit call [1] | kinase-Nluc reporter destabilization hit call [2] | kinase-Nluc reporter destabilization hit call [3] | kinase-Nluc reporter destabilization hit call [4] | kinase-Nluc reporter destabilization hit call [5] | kinase-Nluc reporter destabilization hit call [6] | kinase-Nluc reporter destabilization hit call [7] | kinase-Nluc reporter destabilization hit call [8] | number of time points [9] | number of time points [10] |
| --- | --- | --- | --- | --- | --- | --- | --- | --- | --- | --- |
| C=CC(=O)Nc1ccc(CN(C(=O)Nc2c(Cl)c(OC)cc(OC)c2Cl)c2cc(Nc3ccc(N4CCN(C)CC4)cc3)ncn2)cc1 (10 µM) | inactive: 0 | inactive: 0 | inactive: 0 | inactive: 0 | inactive: 0 | inactive: 0 | inactive: 0 | inactive: 0 | 0 | 0 |
| CC(C)NC(=O)N1CC[C@H](NC2=Nc3cc(F)ccc3N(CC(F)F)c3ccc(Cl)cc32)C1 (10 µM) | inactive: 0 | inactive: 0 | inactive: 0 | inactive: 0 | inactive: 0 | inactive: 0 | inactive: 0 | inactive: 0 | 0 | 0 |
| O=[N+]([O-])c1cc(C(F)(F)F)cc([N+](=O)[O-])c1NNC(=S)Nc1ccc(F)cc1 (10 µM) | inactive: 0 | inactive: 0 | inactive: 0 | inactive: 0 | inactive: 0 | inactive: 0 | inactive: 0 | inactive: 0 | 0 | 0 |
| O=C(NCCCNC(=O)Nc1cccc(C2=NCCN2)c1)Nc1cccc(C2=NCCN2)c1 [p32 Inhibitor M36] (10 µM) | inactive: 0 | inactive: 0 | inactive: 0 | inactive: 0 | inactive: 0 | inactive: 0 | inactive: 0 | inactive: 0 | 0 | 0 |
| Cn1cc(-c2ccc(CNc3cc(-c4cnc5cc(OCCCN6CCCC6)ccn45)ncn3)cc2)cn1 (10 µM) | inactive: 0 | inactive: 0 | inactive: 0 | inactive: 0 | inactive: 0 | inactive: 0 | inactive: 0 | inactive: 0 | 0 | 0 |
| CC(C)=CC[C@H](O)C1=CC(=O)c2c(O)ccc(O)c2C1=O [(-)-Alkannin] (2.5 µM) | inactive: 0 | inactive: 0 | inactive: 0 | inactive: 0 | inactive: 0 | inactive: 0 | inactive: 0 | inactive: 0 | 0 | 0 |
| COc1cc(N2CCC(N3CCN(C)CC3)CC2)ccc1Nc1ncc(Cl)c(Nc2ccccc2P(C)(C)=O)n1 [Brigatinib] (2 µM) | inactive: 0 | inactive: 0 | inactive: 0 | inactive: 0 | inactive: 0 | inactive: 0 | inactive: 0 | inactive: 0 | 1 | 0 |
| CC(C)(NS(=O)(=O)c1ccc2c(Cl)cnc(N=C(N)N)c2c1)C(=O)O (10 µM) | inactive: 0 | inactive: 0 | inactive: 0 | inactive: 0 | inactive: 0 | inactive: 0 | inactive: 0 | inactive: 0 | 0 | 0 |
| Cc1ccc(S(=O)(=O)/C=C/C#N)cc1 (10 µM) | inactive: 0 | inactive: 0 | inactive: 0 | inactive: 0 | inactive: 0 | inactive: 0 | inactive: 0 | inactive: 0 | 0 | 0 |
| C[C@@H]1C(=O)O[C@H](C)[C@H]1C[C@@H](O)[C@](C)(O)[C@H]1CC[C@@]2(O)C3=CC(=O)[C@@H]4C[C@@H](O)[C@@H](O)C[C@]4(C)[C@H]3CC[C@]12C [Cyasterone] (10 µM) | inactive: 0 | inactive: 0 | inactive: 0 | inactive: 0 | inactive: 0 | inactive: 0 | inactive: 0 | inactive: 0 | 0 | 0 |
| Nc1cc(Nc2ccc(S(N)(=O)=O)cc2)ncn1 (10 µM) | inactive: 0 | inactive: 0 | inactive: 0 | inactive: 0 | inactive: 0 | inactive: 0 | inactive: 0 | inactive: 0 | 0 | 0 |
| CC(C)CN[C@H]1CS(=O)(=O)C[C@@H]1S(=O)(=O)c1ccc(Cl)cc1 (10 µM) | inactive: 0 | inactive: 0 | inactive: 0 | inactive: 0 | inactive: 0 | inactive: 0 | inactive: 0 | inactive: 0 | 1 | 0 |
| COc1cccc(-n2c(=O)[nH]c3cc(Cl)n(-c4ccc(-c5cccc(OC)c5O)cc4)c3c2=O)c1 (2.5 µM) | inactive: 0 | inactive: 0 | inactive: 0 | inactive: 0 | inactive: 0 | inactive: 0 | inactive: 0 | inactive: 0 | 0 | 0 |
| COc1ccc(-c2ccc3c(N4CCOC[C@@H]4C)nc(N4CCOC[C@@H]4C)nc3n2)cc1CO (2.5 µM) | inactive: 0 | inactive: 0 | inactive: 0 | inactive: 0 | inactive: 0 | inactive: 0 | inactive: 0 | inactive: 0 | 5 | 0 |
| CO[C@H]1C[C@@H]2CC[C@@H](C)[C@@](O)(O2)C(=O)C(=O)N2CCCC[C@H]2C(=O)O[C@H]([C@H](C)C[C@@H]2CC[C@@H](O)[C@H](OC)C2)CC(=O)[C@H](C)/C=C(\C)[C@@H](O)[C@@H](OC)C(=O)[C@H](C)C[C@H](C)/C=C/C=C/C=C/1C [Rapamycin] (10 µM) | inactive: 0 | inactive: 0 | inactive: 0 | inactive: 0 | inactive: 0 | inactive: 0 | inactive: 0 | inactive: 0 | 0 | 0 |

Arranged by length of the SMILES (smallest number first): part of the list above.

| Compound | kinase-Nluc reporter destabilization hit call [1] | kinase-Nluc reporter destabilization hit call [2] | kinase-Nluc reporter destabilization hit call [3] | kinase-Nluc reporter destabilization hit call [4] | kinase-Nluc reporter destabilization hit call [5] | kinase-Nluc reporter destabilization hit call [6] | kinase-Nluc reporter destabilization hit call [7] | kinase-Nluc reporter destabilization hit call [8] | number of time points [9] | number of time points [10] |
| --- | --- | --- | --- | --- | --- | --- | --- | --- | --- | --- |
| Cc1ccc(S(=O)(=O)/C=C/C#N)cc1 (10 µM) | inactive: 0 | inactive: 0 | inactive: 0 | inactive: 0 | inactive: 0 | inactive: 0 | inactive: 0 | inactive: 0 | 0 | 0 |
| CC(C)NC(=O)N1CC[C@H](NC2=Nc3cc(F)ccc3N(CC(F)F)c3ccc(Cl)cc32)C1 (10 µM) | inactive: 0 | inactive: 0 | inactive: 0 | inactive: 0 | inactive: 0 | inactive: 0 | inactive: 0 | inactive: 0 | 0 | 0 |
| COc1cccc(-n2c(=O)[nH]c3cc(Cl)n(-c4ccc(-c5cccc(OC)c5O)cc4)c3c2=O)c1 (2.5 µM) | inactive: 0 | inactive: 0 | inactive: 0 | inactive: 0 | inactive: 0 | inactive: 0 | inactive: 0 | inactive: 0 | 0 | 0 |
